Source: US20200124619A1, “BIOMARKERS FOR LIVER FUNCTION” (PharmK Corporation, priority 2017, published 2020)

Test: Plasma concentration of CP-I and CP-III by LC/MS in healthy subjects and subjects with liver disease (Child-Pugh score 7-9)
Type: in vivo, human
Experimental: Subjects who were ≥18 years old and have provided prior written informed consent to participated in this study. Group A: six healthy volunteers. Group B: six liver disease subjects who are diagnosed by a licensed physician with Child-Pugh Score (CPT) of 7-9.
Blood was collected in 2×10 mL labeled K2 EDTA Vacutainer tube and then immediately inverted 10 times gently. The tubes were then centrifuged for 15 minutes at 1500 rcf at 4° C. with light protection. The plasma was transferred to cryovials and stored in a dark −70° C. freezer until shipment for analysis.
An aliquot of 50 μL of plasma sample was treated with 0.1% perchloric acid (10:1 v:v) and mixed with 100 μL of acetonitrile containing internal standard (Terfenadine). The mixture was vortexed on a shaker for 15 minutes and subsequently centrifuged at 4000 rpm for 15 minutes. An aliquot of 70 μL of the supernatant was mixed with 70 μL of water for the injection to the LC/MS. Calibration standards and quality control samples were prepared by spiking the CP-I and CP-III into 2.5% BSA in water (treated with 0.1% perchloric acid) and then processed with the unknown samples. CP-I and CP-III calibration standards were prepared at molar concentrations of 0, 0.05, 1, 10, 20, 100 nM each. Separation of CP-I and CP-III was achieved using Shimadzu LC30AD system consisting of a Phenomenex Luna Phenyl-Hexyl column (100×2 mm, 5μ). The system was held at 40° C. and with a constant flow of 0.5 mL/min using a gradient comprising of Mobile phase A (10 mM ammonium formate in water with 0.1% formic acid) and mobile phase B (acetonitrile). The Liquid Chromatography (LC) program starting conditions are 25% B. At 1 minutes % B is increased to 50% over 10 min, and then further increased to 95% in 1 min, maintaining 95% B for 0.8 min and then decreasing to starting conditions (25% B) in 0.2 min and maintaining this until 13.5 min. A Triple Quad™ 5000 mass spectrometer was operated in positive electrospray ionization in MRM mode with the transitions of m/z 655.26>596.3 for CP-I and CP-III, m/z 472.183>436.126 for terfenadine (IS). The chromatographic peaks were processed using Analyst® software (version 1.6.2, AB SCIEX).

Compound | Maximum fold change of CP-I (subjects with liver disease, over the mean concentration of CP-I in healthy subjects) [fold] | Increase of mean concentration of CP-I in plasma (subjects with liver diseases, Child-Pugh Score 7-9, compared to the healthy subjects, six per group) | CP-III concentration in plasma (group of healthy subjects, LLOQ 0.05 nM) | Mean plasma concentration of CP-III (subjects with liver disease (Child-Pugh Score 7-9)) [nM]
CC1=C(CCC(=O)O)c2cc3nc(cc4[nH]c(cc5[nH]c(cc1n2)c(CCC(=O)O)c5C)c(CCC(=O)O)c4C)C(CCC(=O)O)=C3C [CP-I, Coproporphyrin-I] | 10.6 | about 3.8 fold | – | –
CC1=C(CCC(=O)O)c2cc3nc(cc4[nH]c(cc5[nH]c(cc1n2)c(C)c5CCC(=O)O)c(CCC(=O)O)c4C)C(CCC(=O)O)=C3C [CP-III, Coproporphyrin-III] | – | – | < LLOQ | 0.16 ± 0.05
